These are yes or no findings as the source states them, for the method shown. For some of these results: Binding seen in cells or lysates may run through a third protein. Some results given as binding are weak or reduced against the parent protein; the word gives no strength.
What was measured:
[1] = target: Mcm2 (S. cerevisiae) (UniProt P29469); assay: cross-linking; XL-MS: co-expressed complex of CMG, Ctf4, Csm3/Tof1 and Mrc1, calmodulin eluate cross-linked with 100-fold excess of DSBU, 60 min, room temperature; trypsin, LC-MS/MS, MeroX; cross-links residues within about 30 Å
[2] = target: T1, Cdc45-MCM-GINS (CMG) helicase (S. cerevisiae, UniProt P29469 1-868; P24279 1-971; P30665 1-933; P29496 1-775; P53091 1-1017; P38132 …); assay: as above
T1 construct: Mcm2, S. cerevisiae, subunit of MCM in CMG; Mcm3, S. cerevisiae, subunit of MCM in CMG; Mcm4, S. cerevisiae, subunit of MCM in CMG; Mcm5, S. cerevisiae, subunit of MCM in CMG; Mcm6, S. cerevisiae, subunit of MCM in CMG; Mcm7, S. cerevisiae, subunit of MCM in CMG; Cdc45, S. cerevisiae, subunit of CMG; Psf1, S. cerevisiae, subunit of GINS in CMG; Psf2, S. cerevisiae, subunit of GINS in CMG; Psf3, …

The chains behind the UniProt entries cited, without tags or fusion partners.
UniProt P29469: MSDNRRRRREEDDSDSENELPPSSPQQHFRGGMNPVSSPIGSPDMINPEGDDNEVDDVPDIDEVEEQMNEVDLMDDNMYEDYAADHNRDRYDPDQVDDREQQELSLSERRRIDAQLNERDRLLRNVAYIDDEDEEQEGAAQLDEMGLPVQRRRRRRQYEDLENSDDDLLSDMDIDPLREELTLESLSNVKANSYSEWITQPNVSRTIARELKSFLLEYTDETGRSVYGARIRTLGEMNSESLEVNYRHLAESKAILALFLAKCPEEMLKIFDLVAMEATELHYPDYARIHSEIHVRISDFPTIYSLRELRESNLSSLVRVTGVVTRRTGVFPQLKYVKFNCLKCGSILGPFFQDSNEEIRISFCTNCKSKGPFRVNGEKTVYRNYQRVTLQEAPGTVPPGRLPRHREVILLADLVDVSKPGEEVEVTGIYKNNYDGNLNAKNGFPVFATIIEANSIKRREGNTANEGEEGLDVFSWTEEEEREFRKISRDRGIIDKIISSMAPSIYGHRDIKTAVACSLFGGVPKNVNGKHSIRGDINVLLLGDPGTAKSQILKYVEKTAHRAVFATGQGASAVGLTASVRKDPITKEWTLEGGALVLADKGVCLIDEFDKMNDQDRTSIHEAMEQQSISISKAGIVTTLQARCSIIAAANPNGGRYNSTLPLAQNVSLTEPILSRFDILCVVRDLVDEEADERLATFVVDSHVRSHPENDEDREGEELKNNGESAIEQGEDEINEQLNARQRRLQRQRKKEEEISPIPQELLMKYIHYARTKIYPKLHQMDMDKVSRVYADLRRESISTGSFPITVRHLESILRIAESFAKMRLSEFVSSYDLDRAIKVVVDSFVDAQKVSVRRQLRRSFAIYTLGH

[3] = target: T2, Ctf4 (S. cerevisiae) (UniProt Q01454); assay: as above
T2 sequence: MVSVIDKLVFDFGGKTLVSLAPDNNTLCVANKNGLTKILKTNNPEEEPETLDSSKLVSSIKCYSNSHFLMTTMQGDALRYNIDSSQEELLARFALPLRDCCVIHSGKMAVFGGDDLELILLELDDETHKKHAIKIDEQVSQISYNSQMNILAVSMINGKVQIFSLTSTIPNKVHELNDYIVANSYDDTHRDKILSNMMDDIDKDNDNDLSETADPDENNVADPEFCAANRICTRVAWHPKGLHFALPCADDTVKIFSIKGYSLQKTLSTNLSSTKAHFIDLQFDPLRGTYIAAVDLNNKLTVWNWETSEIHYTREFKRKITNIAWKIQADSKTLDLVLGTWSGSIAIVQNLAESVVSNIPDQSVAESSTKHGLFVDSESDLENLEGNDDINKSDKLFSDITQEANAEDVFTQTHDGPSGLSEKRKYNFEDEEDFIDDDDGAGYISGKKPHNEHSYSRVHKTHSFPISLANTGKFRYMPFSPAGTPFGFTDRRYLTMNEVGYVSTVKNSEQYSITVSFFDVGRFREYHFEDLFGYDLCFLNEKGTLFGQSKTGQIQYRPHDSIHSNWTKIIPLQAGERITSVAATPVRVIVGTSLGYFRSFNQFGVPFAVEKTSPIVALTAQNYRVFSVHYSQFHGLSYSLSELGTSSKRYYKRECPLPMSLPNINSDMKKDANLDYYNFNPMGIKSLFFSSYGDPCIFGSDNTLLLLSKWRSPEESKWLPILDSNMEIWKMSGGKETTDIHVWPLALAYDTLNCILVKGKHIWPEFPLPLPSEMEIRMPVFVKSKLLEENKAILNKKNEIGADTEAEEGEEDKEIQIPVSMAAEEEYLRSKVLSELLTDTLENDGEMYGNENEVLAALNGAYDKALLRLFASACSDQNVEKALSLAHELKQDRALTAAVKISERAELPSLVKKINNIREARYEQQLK

[4] = target: T1, Cdc45-MCM-GINS (CMG) helicase; assay: co-sedimentation; 10-30% glycerol gradient without cross-linker; 0.5 μM CMG with 1.5 molar excess of fork DNA, Csm3/Tof1 (or mutant), Ctf4 and Mrc1; 500 μM AMP-PNP, 3 mM Mg(OAc)2, 150 mM NaOAc, pH 7.5; 200,000g, 4°C, 2 h; silver-stained SDS-PAGE of fractions; both purified

binding [1]: binds
binding [2]: binds
binding [3]: binds
binding [4]: binds
B1: Mrc1 (natural protein, S. cerevisiae, UniProt P25588 1-1096, looked up)
chain: MDDALHALSSLTAKKRTTTYKKVAVPILDENDNTNGNGPNDIDNPPELTGNGFLFANATLNRVKNRLEGKKAPEQNHNNGKDRSENSLPTQLISNLYDGGEELEKSEVKDNSYSEKNVSSSFTQTQRIPVSIQQDKVFNVPIHSVNDGKPTQLIKEDGLVNETSQALKTPLTTGRPGATQRIDSSGATSQTQPIKSIEPQSQIITTSSNHSNALSPKIPIIPTELIGTSPLFQSIQNRGPDTQMDVPPQTAHDEDKTQAIGIPQATHQEQKTQIDTVAQTLQDEVPHTLKIREIQSELASEDSKREKARNVEYKKPQKPIPTKKFFSKESFLADFDDSSSNEDDDIKLENAHPKPVQNDDELHENKSVELNLTDETRINEKRVPLLSSYANNLKREIDSSKCITLDLDSDSDEYGDDDMDSIKLSKDESVLPISQLSKATILNLKARLSKQNQKLSQRPNKSKDPKVDHNVLLNTLRKASRKQILDHQKEVIETKGLKLEDMAKEKEIVENLLEQEILRNKRIRQKEKRREKLEENDFQLNAHDSGSDSGSESSGFALSGNEIADYESSGSENDNRRESDSEKEDDEIILKQKKSHHVKHIINESDSDTEVEAKPKEKADESLPKRIAINLGHYGDNIGEDTDKFQETNVLDTQNIEEVMAERNTIENEVKDDVYVNEEADEAIRRQLIDKEKLQLKQKEKEHEAKIKELKKRGVTNFFEMEAEESEDEWHGIGGADGEGSDDYDSDLEKMIDDYSKNNFNPHEIREMLAAENKEMDIKMINKILYDIKNGGFRNKRAKNSLELELSDDDEDDVLQQYRLKRRELMRKRRLEIGDDAKLVKNPKSSAFFESMVEDIIEYKNPFGAEEEYNLDITSTATDLDTQDNSINVGDNTGNNEQKPVDQKNKKVIISEDFVQKSLSFLKSNNYEDFETDKELSRIQHGNDEAIEDLYTLKQNSSIKSFTNSQTDSTTSKTVNTIIDLEKRPEDEDEVENGDTSLVGVFKHPSIIKSFASRTDINDKFKEGNKTVKILKSYKTVGSSKASITYMGKTRKLIAPKRKTEGSHRYHHDHHNKKMKMKTKTKSNKLFESGQDSFDN
notes: Mrc1, S. cerevisiae; printed as a 125 kDa protein; The FLAG purification is told for the separately purified protein; source: S. cerevisiae, overexpressed at 20°C, purified (anti-FLAG M2, Superose 6)

Reference: PMC7276988, “Cryo-EM Structure of the Fork Protection Complex Bound to CMG at a Replication Fork” (Molecular Cell, 2020)
